The supplement of paper PMC12823440, “Inhibitors supercharge kinase turnover through native proteolytic circuits” (Nature, 2025)
Structures can show the parent of a compound that is named as a salt. Some of the results follow. The calls rarely recur for the same compound in another form.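 In K562 cells expressing nanoluciferase-fused kinases, luminescence was recorded at 4 h intervals between 2 and 18 h, normalized as percent of control with DMSO at 100% and a positive control at 0%. A significant (2 sigma) signal drop marks a time point as decreased. The authors' rule for a hit is not shown and takes in more than the number of time points.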

Protein sequences, listed by entry. Tags and fused reporters are not part of them.
UniProt P29317, whole entry: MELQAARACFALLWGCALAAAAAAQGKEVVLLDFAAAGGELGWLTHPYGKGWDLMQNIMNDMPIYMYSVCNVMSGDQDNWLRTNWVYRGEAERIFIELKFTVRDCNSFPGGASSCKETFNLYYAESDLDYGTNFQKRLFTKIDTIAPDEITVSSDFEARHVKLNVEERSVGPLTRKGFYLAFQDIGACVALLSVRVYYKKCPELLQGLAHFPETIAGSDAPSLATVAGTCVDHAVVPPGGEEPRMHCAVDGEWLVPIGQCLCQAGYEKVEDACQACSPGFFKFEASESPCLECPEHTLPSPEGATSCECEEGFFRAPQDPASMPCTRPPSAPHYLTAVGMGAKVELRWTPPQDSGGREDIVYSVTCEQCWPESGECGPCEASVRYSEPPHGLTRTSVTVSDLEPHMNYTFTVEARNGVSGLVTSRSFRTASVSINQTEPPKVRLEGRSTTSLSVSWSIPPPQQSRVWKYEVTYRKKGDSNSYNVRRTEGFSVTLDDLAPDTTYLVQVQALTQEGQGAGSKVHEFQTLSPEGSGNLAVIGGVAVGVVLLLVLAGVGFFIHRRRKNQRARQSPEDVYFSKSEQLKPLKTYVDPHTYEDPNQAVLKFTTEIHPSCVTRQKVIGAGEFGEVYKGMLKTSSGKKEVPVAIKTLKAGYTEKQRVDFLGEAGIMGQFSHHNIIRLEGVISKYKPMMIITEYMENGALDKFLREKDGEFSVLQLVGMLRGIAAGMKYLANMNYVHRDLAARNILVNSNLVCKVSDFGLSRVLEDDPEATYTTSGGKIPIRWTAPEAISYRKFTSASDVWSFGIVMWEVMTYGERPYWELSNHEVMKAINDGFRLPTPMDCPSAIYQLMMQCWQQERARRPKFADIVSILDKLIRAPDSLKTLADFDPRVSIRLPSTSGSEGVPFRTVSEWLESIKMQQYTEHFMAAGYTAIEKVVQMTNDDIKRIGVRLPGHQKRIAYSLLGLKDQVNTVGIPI
UniProt P21860, whole entry: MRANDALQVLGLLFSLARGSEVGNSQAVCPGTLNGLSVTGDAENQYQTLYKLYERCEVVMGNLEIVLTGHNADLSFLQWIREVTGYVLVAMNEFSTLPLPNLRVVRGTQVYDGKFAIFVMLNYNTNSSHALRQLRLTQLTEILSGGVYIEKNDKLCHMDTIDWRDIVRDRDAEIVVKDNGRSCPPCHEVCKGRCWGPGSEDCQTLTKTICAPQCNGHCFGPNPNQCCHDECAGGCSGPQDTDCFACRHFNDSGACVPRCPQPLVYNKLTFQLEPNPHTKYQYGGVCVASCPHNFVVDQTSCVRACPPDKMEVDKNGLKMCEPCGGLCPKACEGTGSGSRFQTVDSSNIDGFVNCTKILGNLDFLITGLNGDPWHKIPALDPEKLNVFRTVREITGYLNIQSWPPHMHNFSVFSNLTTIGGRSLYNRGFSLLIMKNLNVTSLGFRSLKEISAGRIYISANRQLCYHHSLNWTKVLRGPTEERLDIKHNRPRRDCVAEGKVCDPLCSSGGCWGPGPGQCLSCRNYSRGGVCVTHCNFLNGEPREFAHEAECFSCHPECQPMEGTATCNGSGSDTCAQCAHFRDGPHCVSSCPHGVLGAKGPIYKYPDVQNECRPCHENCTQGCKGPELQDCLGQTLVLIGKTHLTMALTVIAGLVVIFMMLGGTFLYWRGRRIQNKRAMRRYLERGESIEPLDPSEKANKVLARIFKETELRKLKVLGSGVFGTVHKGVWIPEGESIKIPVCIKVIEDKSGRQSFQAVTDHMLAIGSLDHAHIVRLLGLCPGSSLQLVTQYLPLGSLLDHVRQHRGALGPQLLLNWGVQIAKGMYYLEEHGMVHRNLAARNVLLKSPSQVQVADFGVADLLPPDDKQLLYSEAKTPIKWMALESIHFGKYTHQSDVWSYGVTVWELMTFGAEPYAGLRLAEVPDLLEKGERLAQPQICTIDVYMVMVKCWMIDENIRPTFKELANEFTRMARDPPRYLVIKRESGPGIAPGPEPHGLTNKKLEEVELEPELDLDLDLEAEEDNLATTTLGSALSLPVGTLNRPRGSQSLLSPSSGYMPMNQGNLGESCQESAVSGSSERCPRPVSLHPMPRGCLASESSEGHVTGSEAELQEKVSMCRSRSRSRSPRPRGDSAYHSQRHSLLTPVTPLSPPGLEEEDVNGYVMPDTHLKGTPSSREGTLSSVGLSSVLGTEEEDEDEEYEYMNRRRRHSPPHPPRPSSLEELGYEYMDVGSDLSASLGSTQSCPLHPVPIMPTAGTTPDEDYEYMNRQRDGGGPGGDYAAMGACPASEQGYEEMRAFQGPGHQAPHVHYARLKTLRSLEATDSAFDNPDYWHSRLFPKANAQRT
UniProt Q15303, whole entry R711C: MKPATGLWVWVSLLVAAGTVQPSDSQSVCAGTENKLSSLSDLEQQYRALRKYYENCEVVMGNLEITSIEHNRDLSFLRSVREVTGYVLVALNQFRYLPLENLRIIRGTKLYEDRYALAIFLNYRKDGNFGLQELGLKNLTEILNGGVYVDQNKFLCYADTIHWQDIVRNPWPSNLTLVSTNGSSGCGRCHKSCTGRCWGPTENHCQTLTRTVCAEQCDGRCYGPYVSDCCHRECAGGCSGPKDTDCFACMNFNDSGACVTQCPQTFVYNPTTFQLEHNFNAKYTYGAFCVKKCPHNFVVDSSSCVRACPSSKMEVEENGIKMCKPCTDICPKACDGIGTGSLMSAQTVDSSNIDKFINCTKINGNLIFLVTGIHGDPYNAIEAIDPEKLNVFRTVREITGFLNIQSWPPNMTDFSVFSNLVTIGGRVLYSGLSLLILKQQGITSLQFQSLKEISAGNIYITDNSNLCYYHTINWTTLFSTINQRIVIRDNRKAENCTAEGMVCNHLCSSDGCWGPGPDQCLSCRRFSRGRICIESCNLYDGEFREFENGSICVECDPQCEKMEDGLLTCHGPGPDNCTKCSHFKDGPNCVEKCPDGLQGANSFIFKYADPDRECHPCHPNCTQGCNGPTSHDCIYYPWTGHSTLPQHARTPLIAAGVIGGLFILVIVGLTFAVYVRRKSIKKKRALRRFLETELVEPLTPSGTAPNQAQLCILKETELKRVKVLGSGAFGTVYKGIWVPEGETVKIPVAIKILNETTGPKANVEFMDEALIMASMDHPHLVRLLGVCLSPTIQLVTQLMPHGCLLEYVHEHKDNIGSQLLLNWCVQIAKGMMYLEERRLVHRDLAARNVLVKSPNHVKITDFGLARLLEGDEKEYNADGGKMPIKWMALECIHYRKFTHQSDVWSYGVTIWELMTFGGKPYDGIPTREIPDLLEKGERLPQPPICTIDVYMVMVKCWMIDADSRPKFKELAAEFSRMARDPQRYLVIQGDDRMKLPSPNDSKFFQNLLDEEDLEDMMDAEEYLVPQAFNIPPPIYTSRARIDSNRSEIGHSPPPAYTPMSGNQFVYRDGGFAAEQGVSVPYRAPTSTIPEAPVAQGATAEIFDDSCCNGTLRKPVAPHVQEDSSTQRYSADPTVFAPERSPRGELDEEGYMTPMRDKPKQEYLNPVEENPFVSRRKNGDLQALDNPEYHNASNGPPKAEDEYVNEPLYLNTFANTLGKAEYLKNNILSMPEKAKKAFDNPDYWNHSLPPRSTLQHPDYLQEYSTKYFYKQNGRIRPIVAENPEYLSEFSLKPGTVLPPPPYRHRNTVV

Experiments:
Assay in all cases: kinase-Nluc reporter destabilization hit call (1 = scored as downregulated) (binary); higher = compound decreases kinase abundance
Details in all cases: K562; 2-18 h
[1] = target: EGFR (UniProt P00533)
[2] = target: EGFR_G719S (UniProt P00533)
[3] = target: EGFR_G719S_T790M (UniProt P00533)
[4] = target: EGFR_L718V (UniProt P00533)
[5] = target: EGFR_L858R (UniProt P00533)
[6] = target: EGFR_L861Q (UniProt P00533)
[7] = target: EGFR_T790M (UniProt P00533)
[8] = target: EPHA2 (UniProt P29317)
[9] = target: ERBB3 (UniProt P21860)
[10] = target: ERBB4_R711C (clone: ERBB4_mut) (UniProt Q15303)

Measured: kinase-Nluc reporter destabilization hit call

O=C(Nc1ncc(SCCN2CCCC2)s1)[C@]1(c2ccc(S(=O)(=O)C3CC3)cc2)C[C@H]1C1CCCCC1 [Globalagliatin] (2.5 µM)
inactive: [1] 0 | [2] 0 | [3] 0 | [4] 0 | [5] 0 | [6] 0 | [7] 0 | [8] 0 | [9] 0 | [10] 0

CN1CCC(c2ccccc2CC(C)(C)Nc2nc(N3CCOCC3)nc(-n3c(S(C)(=O)=O)nc4ccccc43)n2)CC1 (10 µM)
inactive: [1] 0 | [2] 0 | [3] 0 | [4] 0 | [5] 0 | [6] 0 | [7] 0 | [8] 0 | [9] 0 | [10] 0

CNS(=O)(=O)C[C@H]1CC[C@H](N(C)c2[nH]cnc3nccc2-3)CC1 [Oclacitinib (maleate)] (10 µM)
inactive: [1] 0 | [2] 0 | [3] 0 | [4] 0 | [5] 0 | [6] 0 | [7] 0 | [8] 0 | [9] 0 | [10] 0

CCN1C(C)(C)CC(Oc2ccc(C(=O)Nc3ccc(NC(=O)Nc4cc(C(C)(C)C)on4)cc3)nc2)CC1(C)C (10 µM)
inactive: [1] 0 | [2] 0 | [3] 0 | [4] 0 | [5] 0 | [6] 0 | [7] 0 | [8] 0 | [9] 0 | [10] 0

CC(C)n1nc(C#Cc2ccccc2)c2c(N)ncnc21 (10 µM)
inactive: [1] 0 | [2] 0 | [3] 0 | [4] 0 | [5] 0 | [6] 0 | [7] 0 | [8] 0 | [9] 0 | [10] 0

O=C(NCc1cccc(O)c1)c1cc2cc(F)ccc2[nH]1 (10 µM)
inactive: [1] 0 | [2] 0 | [3] 0 | [4] 0 | [5] 0 | [6] 0 | [7] 0 | [8] 0 | [9] 0 | [10] 0

O=C1NCCSc2c1sc1ccc(O)cc21 (2.5 µM)
inactive: [1] 0 | [2] 0 | [3] 0 | [4] 0 | [5] 0 | [6] 0 | [7] 0 | [8] 0 | [9] 0 | [10] 0

CCn1c(-c2nonc2N)nc2c(C#CCO)ncc(OCCCN)c21 [AKT Kinase Inhibitor] (10 µM)
inactive: [1] 0 | [2] 0 | [3] 0 | [4] 0 | [5] 0 | [6] 0 | [7] 0 | [8] 0 | [9] 0 | [10] 0

Cc1ccc(Nc2c(C(N)=O)cnc3cc(-c4ccncc4)ccc23)cc1C [cFMS Receptor Inhibitor II] (10 µM)
inactive: [1] 0 | [2] 0 | [3] 0 | [4] 0 | [5] 0 | [6] 0 | [7] 0 | [8] 0 | [9] 0 | [10] 0

Cn1cc(-c2cn3nccc3c(-c3cnn([C@]4(CC#N)C[C@@H](C#N)C4)c3)n2)cn1 (10 µM)
inactive: [1] 0 | [2] 0 | [3] 0 | [4] 0 | [5] 0 | [6] 0 | [7] 0 | [8] 0 | [9] 0 | [10] 0

O=C(N=c1sccn1Cc1ccccc1)c1c[nH]c2ncccc12 (10 µM)
inactive: [1] 0 | [2] 0 | [3] 0 | [4] 0 | [5] 0 | [6] 0 | [7] 0 | [8] 0 | [9] 0 | [10] 0

NC(=O)c1cccc2c(N[C@H](CN3CCC3)c3ccc(Cl)c(C(F)(F)F)c3)ncnc12 (10 µM)
inactive: [1] 0 | [2] 0 | [3] 0 | [4] 0 | [5] 0 | [6] 0 | [7] 0 | [8] 0 | [9] 0 | [10] 0

CCS(=O)(=O)c1ccc(Oc2cc(O[C@@H](C)CO)cc(C(=O)Nc3ccn(C)n3)c2)cn1 (10 µM)
inactive: [1] 0 | [2] 0 | [3] 0 | [4] 0 | [5] 0 | [6] 0 | [7] 0 | [8] 0 | [9] 0 | [10] 0

Cc1occ2c1C(=O)c1c(O)ccc(O)c1C2 (2.5 µM)
inactive: [1] 0 | [2] 0 | [3] 0 | [4] 0 | [5] 0 | [6] 0 | [7] 0 | [8] 0 | [9] 0 | [10] 0

Oc1ccc2ccccc2c1SSc1c(O)ccc2ccccc12 (10 µM)
inactive: [1] 0 | [2] 0 | [3] 0 | [4] 0 | [5] 0 | [6] 0 | [7] 0 | [8] 0 | [9] 0 | [10] 0

Cn1cc(-c2ccc3nnc(Sc4ccc5nn(C)cc5c4)n3n2)cn1 [c-Met inhibitor 1] (10 µM)
inactive: [1] 0 | [2] 0 | [3] 0 | [4] 0 | [5] 0 | [6] 0 | [7] 0 | [8] 0 | [9] 0 | [10] 0

CC(=O)c1cc(O)ccc1O [2,5-Dihydroxyacetophenone] (10 µM)
inactive: [1] 0 | [2] 0 | [3] 0 | [4] 0 | [5] 0 | [6] 0 | [7] 0 | [8] 0 | [9] 0 | [10] 0

C=CC(=O)Nc1cc(C(=O)NC)cc(-c2n[nH]c3ccccc23)c1 (10 µM)
inactive: [1] 0 | [2] 0 | [3] 0 | [4] 0 | [5] 0 | [6] 0 | [7] 0 | [8] 0 | [9] 0 | [10] 0

Cc1cc(Nc2ncc(Cl)c(Nc3ccccc3S(=O)(=O)C(C)C)n2)c(OC(C)C)cc1C1CCN(CC(=O)NCCNc2cccc3c2C(=O)N(C2CCC(=O)NC2=O)C3=O)CC1 (stereo not given) (10 µM)
inactive: [1] 0 | [2] 0 | [3] 0 | [4] 0 | [5] 0 | [6] 0 | [7] 0 | [8] 0 | [9] 0 | [10] 0

O=C(N/N=C/c1ccc([N+](=O)[O-])o1)c1ccc(O)cc1 [Nifuroxazide] (10 µM)
inactive: [1] 0 | [2] 0 | [3] 0 | [4] 0 | [5] 0 | [6] 0 | [7] 0 | [8] 0 | [9] 0 | [10] 0

O=c1[nH]nc(Sc2ncc([N+](=O)[O-])s2)n1-c1ccc2c(c1)OCCO2 (2.5 µM)
inactive: [1] 0 | [2] 0 | [3] 0 | [4] 0 | [5] 0 | [6] 0 | [7] 0 | [8] 0 | [9] 0 | [10] 0

CC(C)(O)c1cc2nc(-c3cnc(N)nc3)nc(N3CCOCC3)c2s1 (2.5 µM)
inactive: [1] 0 | [2] 0 | [3] 0 | [4] 0 | [5] 0 | [6] 0 | [7] 0 | [8] 0 | [9] 0 | [10] 0

CC(C)c1cnn2c(NCc3ccccc3)cc(NCCCCCCN)nc12 [BS-181 (hydrochloride)] (10 µM)
inactive: [1] 0 | [2] 0 | [3] 0 | [4] 0 | [5] 0 | [6] 0 | [7] 0 | [8] 0 | [9] 0 | [10] 0

CNC(=O)c1nnc(NC(=O)C2CC2)cc1Nc1cccc(-c2ncn(C)n2)c1OC [Deucravacitinib] (10 µM)
inactive: [1] 0 | [2] 0 | [3] 0 | [4] 0 | [5] 0 | [6] 0 | [7] 0 | [8] 0 | [9] 0 | [10] 0

Arranged by molecular weight (ascending): part of the list above
Cn1cc(-c2ccc3nnc(Sc4ccc5nn(C)cc5c4)n3n2)cn1 [c-Met inhibitor 1] (10 µM)
inactive: [1] 0 | [2] 0 | [3] 0 | [4] 0 | [5] 0 | [6] 0 | [7] 0 | [8] 0 | [9] 0 | [10] 0

O=c1[nH]nc(Sc2ncc([N+](=O)[O-])s2)n1-c1ccc2c(c1)OCCO2 (2.5 µM)
inactive: [1] 0 | [2] 0 | [3] 0 | [4] 0 | [5] 0 | [6] 0 | [7] 0 | [8] 0 | [9] 0 | [10] 0

CCN1C(C)(C)CC(Oc2ccc(C(=O)Nc3ccc(NC(=O)Nc4cc(C(C)(C)C)on4)cc3)nc2)CC1(C)C (10 µM)
inactive: [1] 0 | [2] 0 | [3] 0 | [4] 0 | [5] 0 | [6] 0 | [7] 0 | [8] 0 | [9] 0 | [10] 0

The results go on:

O=C1c2c(O)cc(O)cc2O[C@H](c2cc(O)c(O)c(O)c2)[C@H]1O [Dihydromyricetin] (10 µM)
inactive: [1] 0 | [2] 0 | [3] 0 | [4] 0 | [5] 0 | [6] 0 | [7] 0 | [8] 0 | [9] 0 | [10] 0

Cc1cc(/C=C2\CC/C(=C\c3cc(C)c(O)c(C)c3)C2=O)cc(C)c1O [Pentagamavunon-1] (2.5 µM)
inactive: [1] 0 | [2] 0 | [3] 0 | [4] 0 | [5] 0 | [6] 0 | [7] 0 | [8] 0 | [9] 0 | [10] 0

COc1ccc(F)cc1C(=O)NCc1ccc(-c2nn([C@@H](C)C(F)(F)F)c(N)c2C(N)=O)cc1 [Pirtobrutinib] (10 µM)
inactive: [1] 0 | [2] 0 | [3] 0 | [4] 0 | [5] 0 | [6] 0 | [7] 0 | [8] 0 | [9] 0 | [10] 0
